This is an account of results in the RNAGym collection of RNA variant scans (doi:10.1126/science.aae0568).

Variants at the background level are over-represented here. Where only a bound is given, the exact number is not on record here.

First the molecules themselves.
B1: tRNA (parent)
chain: GUUCCGUUGGCGUAAUGGUAACGCGUCUCCCUCCUAAGGAGAAGACUGCGGGUUCGAGUCCCGUACGGAACG

Variants of B1 are the subject of this data set. As to the kind of experiment: yeast fitness relative to wild type (ratio to wild type); higher = fitter; tRNA-Arg(CCU), competitive growth, 37 C, YPD. The procedure, abridged:
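Variants of the tRNA-Arg(CCU) gene were chemically synthesised with a 3% per-site mutation rate across 69 sites and placed at the native genomic locus in Saccharomyces cerevisiae. Six parallel replicates of the pooled strains were competed in YPD at 37°C for 24 hours, and gene amplicons from the start and end populations were read by 100-nucleotide paired-end sequencing. Darwinian fitness relative to wild type was derived from changes in genotype frequencies. Genotypes required ≥ 100 starting reads, and estimates < 0.5 were set to 0.5.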
On to G17A C29U A37G A65G, for which the yeast fitness is at most 0.5.

For the variant U26C G44C G58A G68C, the yeast fitness is at most 0.5. As for U8G A37G A40G, the yeast fitness was at most 0.5. As to C5G A37C G38A G52A A69C, the yeast fitness was at most 0.5. U16G C30G C55G: the yeast fitness was at most 0.5. Consider U3G C5U C30U A40U C49U, for which the yeast fitness was at most 0.5. Under U13C A20U C34U G68A A70C stands at most 0.5; under G10A G18C A20U C30A A69U, at most 0.5; under C4A G17C G23C A45C C60U, at most 0.5. Under U2C G10A C27U G41A G63A stands at most 0.5; under A36G A45C A57C U64A G68A, at most 0.5. C4A U7C G41A C49A U54C: the yeast fitness is at most 0.5. Take C5G G51A C60A: the yeast fitness was at most 0.5. A14G A21G C24G U28G: the yeast fitness is at most 0.5. Under G10A A21C C22A G25C G38A stands at most 0.5. Under U3A G6A A37C U64A G68C A69U stands at most 0.5.

As to G9C C34A G38A, the yeast fitness was at most 0.5. As to C5A U16A A43G U59A C61A, the yeast fitness is at most 0.5. Consider G38A C46A A57G, for which the yeast fitness turned out to be 0.769.

For the variant U3G U8A G18C C30G A69C A70G, the yeast fitness is at most 0.5. In the case of C29G G50A U64C, the yeast fitness is at most 0.5. Regarding G6A C34A A40U C55U U59A A70U, the yeast fitness is at most 0.5. Under G18A U28A A42G A45C A65G stands at most 0.5; under C4G G12C C46U, at most 0.5; under C4A A14U A20C U28G C31A, at most 0.5. Regarding U13A C22A A36U A45G, the yeast fitness was at most 0.5. As to C30G C46U C49G G63U U64A, the yeast fitness was at most 0.5. Under C5U C11A C24G C27G A36U G38C C60G C66A stands 0.522; under G51C C55G, at most 0.5. As to U2C C4U A70C, the yeast fitness was determined as 0.733. For the variant U16A U32C C61G A69C, the yeast fitness is at most 0.5. On to U8C A37G C55G G68C, for which the yeast fitness is at most 0.5. On to C27U C29U C62U, for which the yeast fitness was 0.578. As to A14G A42G G48A, the yeast fitness was at most 0.5. Consider G17C C24G C46A G68C, for which the yeast fitness is at most 0.5. Turning to U35G A43C U47C C55U A69C, the yeast fitness was at most 0.5. For the variant A45C A57C G58C, the yeast fitness was found to be 0.602. The result for A42U G44C A45U G58A C61U A69U reads at most 0.5; that for C11U A14G U28A C55G, at most 0.5.

In the case of C5A C11G G41C C49A C60G C61U, the yeast fitness was at most 0.5. The result for C33G A42C C46G C49G reads at most 0.5. On to U19A C29A U32A, for which the yeast fitness is at most 0.5. Under C22A C30U G52A stands at most 0.5; under C24U G58A A65C A69U, at most 0.5; under G18C C22G C33G, at most 0.5. For the variant C31G A43U C55A, the yeast fitness was at most 0.5.

For U3A C5A G6C A15G U16A U26G U32A C34G C55G G68A A70C, the yeast fitness was at most 0.5.

Turning to C22U C46G G56C, the yeast fitness is at most 0.5. With G9A C24G A37C A70U, the yeast fitness is at most 0.5. Take A20G G23C A69C: the yeast fitness is at most 0.5.

In the case of C33A G39C G41C G44C, the yeast fitness was 0.549. Under C4U C22U U47G stands at most 0.5; under G9C C27G G44A A57G G63A, at most 0.5; under G23C C61G C62U, at most 0.5. For the variant U13C U53A, the yeast fitness amounted to 0.674.

As for A36G A40G C55U, the yeast fitness was at most 0.5. In the case of G10A A45C U64G, the yeast fitness is at most 0.5. U3A C22G C29U G67C: the yeast fitness was at most 0.5. On to C66A G68A, for which the yeast fitness was 0.695.

On to C4G A40G C46G C60U, for which the yeast fitness is at most 0.5.

In the case of A40G G48A, the yeast fitness turned out to be 1.01. C5G U28G C30G A40C A42U: the yeast fitness is at most 0.5. For U7C G17A U28C, the yeast fitness was at most 0.5. Take U28C A70U: the yeast fitness was 0.87. As for U2G A36U C61G, the yeast fitness was at most 0.5. The result for A14G U19C C60G reads at most 0.5; that for C11U G23C A69C, at most 0.5; that for C5U C24G G39A A43C, at most 0.5. Take C34G G38C C62G A69C: the yeast fitness was at most 0.5. As to A20G U32C A40C A42U A43C G48A, the yeast fitness was at most 0.5.

For A45C U53C, the yeast fitness amounted to 0.823. As to G6A C24U G39A G41C, the yeast fitness was at most 0.5. The result for A14G U47G G56A reads at most 0.5; that for C5U G6C A21U G38C G39A A43C C60G A65C, at most 0.5. For C29A G44C A69U, the yeast fitness is at most 0.5.

For U7C C11G C24A U47A U64C G67U, the yeast fitness was at most 0.5. Consider C4U A37G G39C U53A C66U, for which the yeast fitness was at most 0.5. On to U13C G51C G67C, for which the yeast fitness was at most 0.5. As for C33U C34G, the yeast fitness turned out to be 0.648. Consider C5G U19G C22U A43C G51A, for which the yeast fitness is at most 0.5. On to U8A C34U A43U U59C G67C, for which the yeast fitness was at most 0.5. In the case of G41A U53C A57C, the yeast fitness is at most 0.5. As for U35C A42G C62A, the yeast fitness is at most 0.5. Turning to G17C C27G A65U, the yeast fitness was at most 0.5. For C27U A36C U54A C62U, the yeast fitness is at most 0.5. Turning to G12C C22U U28A, the yeast fitness was 0.52.

Consider C4A C29U A37G G39C C49U U64A, for which the yeast fitness was at most 0.5. Take U3A C22U U28A A37U G51C C66U: the yeast fitness is at most 0.5. For the variant C24G C34G G68A A70U, the yeast fitness was at most 0.5. For C4G G25A C60G G68C, the yeast fitness is at most 0.5. For C24U A42U C62G A65U, the yeast fitness was at most 0.5. For the variant G25C A37U, the yeast fitness was 0.56. Regarding U13A G48C C55G C66A, the yeast fitness worked out at 0.584.

Take C22G C27A C49U C55U: the yeast fitness was at most 0.5. G9C G41C A57C: the yeast fitness is at most 0.5. Regarding U2C C30U C34G G38C A65C, the yeast fitness was at most 0.5.

For C27G A36C C46U G51C C66U, the yeast fitness is at most 0.5.

Turning to C11U A40C G41C, the yeast fitness is at most 0.5. Under G9C C11U A20C C31U U59A stands at most 0.5; under A36C A40G A65U, at most 0.5; under C11G A42C A43U, at most 0.5. In the case of G10C U32C U35G A43C U47C C55U A69C, the yeast fitness is at most 0.5. As to G18C A37C C49G A70G, the yeast fitness was at most 0.5. Turning to U8A C34U C66U, the yeast fitness is at most 0.5. With U3A C4U C33G C34G A57U, the yeast fitness turned out to be 0.63.

With C31U A42G C62U A69C, the yeast fitness is 0.542. Regarding C11G A36C A45G A57C C61G, the yeast fitness is at most 0.5. Regarding C31G G39C G56A, the yeast fitness was at most 0.5.

Regarding A20U A36G U59A, the yeast fitness is at most 0.5.

In the case of U2C U3C G23C C31G C33U A42G G52C G58C, the yeast fitness was at most 0.5. As for C4G U8C C24G C30G C49A, the yeast fitness is at most 0.5.

For the variant G12A C22U A40G A43G, the yeast fitness is at most 0.5. Take C27U C30A G51A C62A G67A: the yeast fitness is at most 0.5. Turning to U13C C46U G48A C66U, the yeast fitness is at most 0.5. For U26A C30A G68C, the yeast fitness was at most 0.5. Consider U7A G44C, for which the yeast fitness was 0.718. For C30G U53C C60A C61A C66G, the yeast fitness is at most 0.5. Under C5U A45C A70G stands 0.76; under C5G A21C C24U, at most 0.5; under G9C U35G C62A, at most 0.5.

As to C4U C11U G44C A70U, the yeast fitness was at most 0.5. Consider C4G C29G U35G G41C C62U U64A, for which the yeast fitness is at most 0.5. A20C G38A C49A G58C: the yeast fitness was at most 0.5. Turning to U8C C22U G58C, the yeast fitness was at most 0.5. As to A15G G67A, the yeast fitness turned out to be 0.868. Turning to C11A U19A C29A, the yeast fitness is at most 0.5.

For the variant A21U U32C A45U G67C, the yeast fitness was at most 0.5.

For the variant A21C C29G G50U G68C, the yeast fitness was at most 0.5. The result for C24A C49U A65U reads at most 0.5. Turning to A15G A21U C34U C46G U53G, the yeast fitness was at most 0.5. For C34U G52A C61U C66A, the yeast fitness is at most 0.5.

For A20U C22A C34A G44A A57C, the yeast fitness is at most 0.5.

For the variant A15C A21C C34G, the yeast fitness was at most 0.5.

Turning to A21G G23A C27G A37U G44A, the yeast fitness is at most 0.5. Take C4A A70U: the yeast fitness worked out at 0.879. The result for U7C A65G G68U reads at most 0.5; that for U7G G9A A43C, 0.515. Take C4U G52C C62G: the yeast fitness was at most 0.5. Take C27U G38C G67A: the yeast fitness is at most 0.5. For U2A C33U A37C A70G, the yeast fitness is at most 0.5. Under G6A C27A A42C C46U C62U stands at most 0.5; under U3G A21G C31G C33U A43U, at most 0.5. For U7C G12A U13G A14C U35C C49U, the yeast fitness is at most 0.5. Turning to C34U A36C U53C A65G, the yeast fitness was at most 0.5. With U26C C55G G68U, the yeast fitness is at most 0.5. As to A21U C34G A43U, the yeast fitness is at most 0.5. A15U A21G C29U G44C C55A G56C C61U A70G: the yeast fitness is at most 0.5. With U2G C11G A20U C24G A42G, the yeast fitness is at most 0.5.

Turning to C4U C34U A40C C62U A65U, the yeast fitness was at most 0.5. In the case of G17A C62A C66A, the yeast fitness was at most 0.5. On to C11A C34G C60A C61U, for which the yeast fitness is at most 0.5. A20C C33A A40G: the yeast fitness is at most 0.5. Turning to C11A G25A, the yeast fitness was found to be 0.572. The result for G6C U8C A42G C46U C55G A65U reads at most 0.5; that for C24U C34U U35G, at most 0.5; that for C22A G23A A37G A57G A69U, at most 0.5. A15C G18A A20U A69C: the yeast fitness was at most 0.5.

G17A U54C U59C C61G: the yeast fitness was at most 0.5. With G6C A15C G56A C61G, the yeast fitness was at most 0.5. For the variant U32A A37G U47A, the yeast fitness is at most 0.5. Regarding U16A C34G A45C C60A C61G, the yeast fitness was at most 0.5. The result for G12C C49U G52C A57C A65C reads 0.53. For the variant C11U U59A, the yeast fitness amounted to 0.757. As for G39C G48C, the yeast fitness turned out to be 0.688.

Turning to C11A A21C A42C C61U, the yeast fitness is at most 0.5. As for A21C C22G C49U, the yeast fitness is at most 0.5. On to C11G A15G G68C, for which the yeast fitness was at most 0.5.
